No constants are given. Whether binding was seen depends on the method and setting. Some entries that bind do so weakly or less than the wild type. Where a sequence is shown, tags or fusion partners need not be part of it.
Each substance was assayed against T1, BD-DSK2B (Arabidopsis thaliana) (UniProt Q9SII8) (assay: two-hybrid; pair-wise test in Y2H-Gold; colonies from SD-L-W plates transferred onto SD-L-W-H and SD-L-W-A-H plates).
T1 sequence: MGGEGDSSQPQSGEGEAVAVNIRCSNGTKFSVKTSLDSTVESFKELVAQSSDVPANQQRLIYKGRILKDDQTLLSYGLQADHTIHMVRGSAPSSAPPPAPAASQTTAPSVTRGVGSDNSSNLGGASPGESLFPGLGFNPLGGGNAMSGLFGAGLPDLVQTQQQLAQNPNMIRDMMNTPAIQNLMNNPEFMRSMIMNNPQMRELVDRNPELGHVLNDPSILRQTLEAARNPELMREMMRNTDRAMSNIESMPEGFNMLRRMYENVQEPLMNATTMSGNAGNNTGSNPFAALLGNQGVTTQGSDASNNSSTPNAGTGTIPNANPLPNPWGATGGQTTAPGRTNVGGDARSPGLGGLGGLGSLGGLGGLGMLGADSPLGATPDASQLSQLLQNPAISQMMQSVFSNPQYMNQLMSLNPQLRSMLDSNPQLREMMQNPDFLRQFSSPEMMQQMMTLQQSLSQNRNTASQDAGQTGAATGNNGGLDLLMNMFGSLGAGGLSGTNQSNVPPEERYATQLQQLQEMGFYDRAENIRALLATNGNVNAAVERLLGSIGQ

Sequences of proteins named here, by UniProt entry; tags and fusion partners are left off.
UniProt Q9FMX2: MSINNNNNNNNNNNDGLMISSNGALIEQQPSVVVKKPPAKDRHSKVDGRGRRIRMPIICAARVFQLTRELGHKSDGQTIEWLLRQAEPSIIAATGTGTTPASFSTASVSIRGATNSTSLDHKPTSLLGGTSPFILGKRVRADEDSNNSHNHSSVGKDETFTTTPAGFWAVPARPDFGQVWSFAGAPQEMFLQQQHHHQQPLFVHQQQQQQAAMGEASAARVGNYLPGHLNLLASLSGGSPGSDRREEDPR
UniProt Q93Z00: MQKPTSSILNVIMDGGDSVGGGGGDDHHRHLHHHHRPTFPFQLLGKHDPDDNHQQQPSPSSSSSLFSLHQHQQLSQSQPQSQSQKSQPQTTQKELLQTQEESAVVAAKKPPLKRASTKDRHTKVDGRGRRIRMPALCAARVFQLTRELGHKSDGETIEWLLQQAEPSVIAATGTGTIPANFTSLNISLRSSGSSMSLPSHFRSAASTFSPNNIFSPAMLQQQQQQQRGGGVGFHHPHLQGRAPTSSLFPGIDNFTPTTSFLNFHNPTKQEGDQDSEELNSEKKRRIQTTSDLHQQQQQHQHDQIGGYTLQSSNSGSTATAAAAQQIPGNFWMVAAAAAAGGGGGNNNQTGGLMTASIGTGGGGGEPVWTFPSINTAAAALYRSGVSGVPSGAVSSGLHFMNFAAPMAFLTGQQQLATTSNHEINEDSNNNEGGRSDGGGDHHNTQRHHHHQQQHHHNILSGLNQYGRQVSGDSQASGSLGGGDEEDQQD
UniProt Q9FTA2: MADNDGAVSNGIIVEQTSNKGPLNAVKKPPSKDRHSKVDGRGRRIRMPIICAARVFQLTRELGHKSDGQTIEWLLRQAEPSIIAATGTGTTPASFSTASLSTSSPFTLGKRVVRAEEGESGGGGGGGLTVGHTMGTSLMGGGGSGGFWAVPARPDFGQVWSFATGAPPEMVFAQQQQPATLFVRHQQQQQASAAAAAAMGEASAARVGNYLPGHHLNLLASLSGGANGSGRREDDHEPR

binding, binds:
AD-TCP7 (from UniProt Q9FMX2 1-250)
AD-TCP14 (from UniProt Q93Z00 1-489)
AD-TCP15 (from UniProt Q9C9L2 1-325)
AD-TCP21 (from UniProt Q9FTA2 1-239)

— article PMC12287301
